Experimental data published in PMC10940162.
These are yes or no findings as the source states them, for the method shown. In cells and extracts the contact can be indirect. These calls come from enrichment with a bait or labelling near it, and not all partners need be listed.

Sequences of proteins named here, by UniProt entry; tags and fusion partners are left off.
UniProt Q96RT7: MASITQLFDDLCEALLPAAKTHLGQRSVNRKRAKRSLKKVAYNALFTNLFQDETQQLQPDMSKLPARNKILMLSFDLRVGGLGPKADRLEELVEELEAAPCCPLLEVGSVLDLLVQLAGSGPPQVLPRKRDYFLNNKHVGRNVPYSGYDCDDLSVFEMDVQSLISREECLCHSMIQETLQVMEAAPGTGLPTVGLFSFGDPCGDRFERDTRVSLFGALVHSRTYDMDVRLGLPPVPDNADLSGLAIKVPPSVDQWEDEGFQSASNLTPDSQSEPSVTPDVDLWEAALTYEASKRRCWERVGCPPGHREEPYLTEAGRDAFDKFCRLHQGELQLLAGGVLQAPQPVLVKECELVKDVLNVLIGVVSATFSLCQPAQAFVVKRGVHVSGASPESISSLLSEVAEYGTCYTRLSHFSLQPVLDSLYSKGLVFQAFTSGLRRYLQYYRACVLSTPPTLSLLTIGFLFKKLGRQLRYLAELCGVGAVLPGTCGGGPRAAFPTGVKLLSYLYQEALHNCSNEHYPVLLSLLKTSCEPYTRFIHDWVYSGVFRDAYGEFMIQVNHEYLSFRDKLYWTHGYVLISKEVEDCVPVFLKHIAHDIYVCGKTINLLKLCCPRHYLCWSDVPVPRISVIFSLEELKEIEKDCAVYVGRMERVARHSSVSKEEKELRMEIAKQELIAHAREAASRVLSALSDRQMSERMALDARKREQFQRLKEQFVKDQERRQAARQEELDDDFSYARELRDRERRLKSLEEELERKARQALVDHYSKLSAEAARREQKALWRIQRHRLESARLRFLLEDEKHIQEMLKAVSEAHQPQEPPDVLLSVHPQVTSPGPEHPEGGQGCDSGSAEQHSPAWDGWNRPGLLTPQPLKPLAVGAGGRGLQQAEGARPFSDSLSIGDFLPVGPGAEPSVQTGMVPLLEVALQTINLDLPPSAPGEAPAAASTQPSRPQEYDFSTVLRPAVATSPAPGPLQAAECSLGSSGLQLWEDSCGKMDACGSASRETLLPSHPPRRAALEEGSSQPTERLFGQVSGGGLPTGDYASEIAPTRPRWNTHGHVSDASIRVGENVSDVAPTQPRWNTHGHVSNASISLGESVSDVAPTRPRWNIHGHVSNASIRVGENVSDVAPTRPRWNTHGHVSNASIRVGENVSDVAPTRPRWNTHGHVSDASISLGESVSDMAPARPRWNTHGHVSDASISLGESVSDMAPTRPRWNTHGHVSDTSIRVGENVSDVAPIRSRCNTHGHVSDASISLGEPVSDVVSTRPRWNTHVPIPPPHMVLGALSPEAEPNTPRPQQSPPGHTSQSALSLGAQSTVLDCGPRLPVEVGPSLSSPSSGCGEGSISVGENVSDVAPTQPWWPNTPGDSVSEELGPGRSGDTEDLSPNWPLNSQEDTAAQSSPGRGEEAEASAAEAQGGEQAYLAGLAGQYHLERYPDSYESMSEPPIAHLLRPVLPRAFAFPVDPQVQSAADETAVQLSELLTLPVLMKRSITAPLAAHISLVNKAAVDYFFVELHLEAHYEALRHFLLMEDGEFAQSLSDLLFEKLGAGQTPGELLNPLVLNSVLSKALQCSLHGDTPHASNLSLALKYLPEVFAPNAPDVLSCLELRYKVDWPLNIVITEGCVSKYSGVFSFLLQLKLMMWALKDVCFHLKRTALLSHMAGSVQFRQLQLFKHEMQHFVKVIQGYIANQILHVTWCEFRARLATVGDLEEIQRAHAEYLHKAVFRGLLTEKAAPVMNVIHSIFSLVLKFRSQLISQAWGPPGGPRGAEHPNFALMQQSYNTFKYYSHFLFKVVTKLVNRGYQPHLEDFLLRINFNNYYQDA
UniProt Q9UGJ1: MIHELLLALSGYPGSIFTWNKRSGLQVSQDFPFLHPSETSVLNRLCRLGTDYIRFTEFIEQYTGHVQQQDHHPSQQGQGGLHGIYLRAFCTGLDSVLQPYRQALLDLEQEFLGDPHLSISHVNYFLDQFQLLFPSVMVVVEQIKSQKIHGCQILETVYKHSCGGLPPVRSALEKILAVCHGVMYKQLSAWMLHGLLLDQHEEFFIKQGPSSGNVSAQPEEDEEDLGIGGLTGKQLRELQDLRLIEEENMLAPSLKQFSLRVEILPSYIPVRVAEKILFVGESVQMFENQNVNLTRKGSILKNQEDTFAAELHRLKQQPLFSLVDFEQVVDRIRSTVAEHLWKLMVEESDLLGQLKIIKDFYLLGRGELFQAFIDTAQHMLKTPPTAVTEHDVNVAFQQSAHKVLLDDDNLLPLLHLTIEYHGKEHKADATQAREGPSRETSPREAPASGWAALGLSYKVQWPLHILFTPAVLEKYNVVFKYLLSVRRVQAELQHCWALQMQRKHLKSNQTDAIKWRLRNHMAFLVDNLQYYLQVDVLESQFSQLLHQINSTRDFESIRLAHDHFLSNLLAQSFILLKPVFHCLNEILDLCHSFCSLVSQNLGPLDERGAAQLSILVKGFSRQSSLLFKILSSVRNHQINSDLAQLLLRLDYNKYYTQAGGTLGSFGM
UniProt Q96RT8: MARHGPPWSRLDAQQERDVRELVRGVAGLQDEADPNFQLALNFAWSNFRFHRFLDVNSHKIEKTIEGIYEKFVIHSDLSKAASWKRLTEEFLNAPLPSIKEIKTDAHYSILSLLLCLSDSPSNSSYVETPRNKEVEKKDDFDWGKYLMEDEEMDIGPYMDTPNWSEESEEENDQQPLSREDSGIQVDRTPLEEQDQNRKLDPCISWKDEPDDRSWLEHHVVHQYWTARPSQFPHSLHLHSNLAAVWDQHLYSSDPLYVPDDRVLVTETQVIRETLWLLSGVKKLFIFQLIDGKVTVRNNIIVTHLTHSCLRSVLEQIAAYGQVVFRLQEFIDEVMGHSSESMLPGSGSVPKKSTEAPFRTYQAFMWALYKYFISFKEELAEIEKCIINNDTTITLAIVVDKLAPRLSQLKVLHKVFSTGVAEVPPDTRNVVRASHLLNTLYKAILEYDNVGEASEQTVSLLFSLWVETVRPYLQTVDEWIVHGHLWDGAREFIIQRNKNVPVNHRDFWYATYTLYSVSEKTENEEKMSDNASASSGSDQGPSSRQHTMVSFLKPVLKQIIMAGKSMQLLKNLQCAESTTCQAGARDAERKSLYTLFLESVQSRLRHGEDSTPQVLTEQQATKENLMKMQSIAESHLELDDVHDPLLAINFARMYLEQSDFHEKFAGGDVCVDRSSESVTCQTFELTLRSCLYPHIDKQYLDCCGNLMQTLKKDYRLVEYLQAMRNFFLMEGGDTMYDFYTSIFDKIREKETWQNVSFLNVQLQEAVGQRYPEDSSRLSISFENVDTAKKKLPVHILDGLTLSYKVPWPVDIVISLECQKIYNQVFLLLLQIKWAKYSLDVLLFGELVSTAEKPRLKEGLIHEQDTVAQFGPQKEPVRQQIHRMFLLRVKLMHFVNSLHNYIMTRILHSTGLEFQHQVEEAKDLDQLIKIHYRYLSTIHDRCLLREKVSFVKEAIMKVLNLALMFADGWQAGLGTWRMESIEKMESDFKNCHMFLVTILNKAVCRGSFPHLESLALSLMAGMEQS

Molecular target: GCP6–GFP–SII (human (endogenous in HEK293T)) (UniProt Q96RT7)
Assay: affinity purification with mass spectrometry; Strep-Tactin purification of endogenously tagged GCP6–GFP–SII from HEK293T knockin cell lysate (elution with 300 mM NaCl); MS with iBAQ

binding | Substance
binds | GCP4 (from UniProt Q9UGJ1 1-667)
binds | GCP5 (from UniProt Q96RT8 1-1024)
